Assay results taken from the supplement of paper PMC8728848.
This is one part of the list.

Tests used:
[1] = biological target: Neu5Gc(a2-8)Neu5Gc(a2-6)Gal(b1-4)GlcNAc; assay: glycan array binding signal (z-score within array); higher = stronger binding; details: glycan notation: IUPAC condensed, linker removed
Summary of the method: (§1)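 Arrays were curated from the Consortium for Functional Glycomics database, 3228 in total, and kept only where the protein sequence was available. Binding is expressed as a within-array Z-score. This score was averaged across arrays of the same protein sequence at different concentrations or buffers and across linkers, and negative values can be read as non-binding.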

[2] = biological target: Neu5Gc(b2-6)Gal(b1-4)GlcNAc; assay: as above; details: glycan notation: IUPAC condensed, linker removed
Summary of the method: as §1

B1: Clec18Av1 (Homo sapiens), A5D8T8 (protein)
chain: MLHPETSPGRGHLLAVLLALLGTAWAEVWPPQLQEQAPMAGALNRKESFLLLSLHNRLRSWVQPPAADMRRLDWSDSLAQLAQARAALCGTPTPSLASGLWRTLQVGWNMQLLPAGLVSFVEVVSLWFAEGQRYSHAAGECARNATCTHYTQLVWATSSQLGCGRHLCSAGQAAIEAFVCAYSPRGNWEVNGKTIVPYKKGAWCSLCTASVSGCFKAWDHAGGLCEVPRNPCRMSCQNHGRLNISTCHCHCPPGYTGRYCQVRCSLQCVHGRFREEECSCVCDIGYGGAQCATKVHFPFHTCDLRIDGDCFMVSSEADTYYRARMKCQRKGGVLAQIKSQKVQDILAFYLGRLETTNEVIDSDFETRNFWIGLTYKTAKDSFRWATGEHQAFTSFAFGQPDNHGFGNCVELQASAAFNWNDQRCKTRNRYICQFAQEHISRWGPGS
With B1 the “glycan array binding signal (z-score)” value [1] was 0.057 and the “glycan array binding signal (z-score)” value [2] was -0.594.
